From patent US20230384322A1, “COMPLEMENTOME ASSAY” (Complement Therapeutics Limited, priority 2020, published 2023)

B1: FHL-1: truncated form of FH comprising the first seven CCP domains, SEQ ID NO:2 (protein, listed as Homo sapiens)
chain: MRLLAKIICLMLWAICVAEDCNELPPRRNTEILTGSWSDQTYPEGTQAIYKCRPGYRSLGNVIMVCRKGEWVALNPLRKCQKRPCGHPGDTPFGTFTLTGGNVFEYGVKAVYTCNEGYQLLGEINYRECDTDGWTNDIPICEVVKCLPVTAPENGKIVSSAMEPDREYHFGQAVRFVCNSGYKIEGDEEMHCSDDGFWSKEKPKCVEISCKSPDVINGSPISQKIIYKENERFQYKCNMGYEYSERGDAVCTESGWRPLPSCEEKSCDNPYIPNGDYSPLRIKHRTGDEITYQCRNGFYPATRGNTAKCTSTGWIPAPRCTLKPCDYPDIKHGGLYHENMRRPYFPVAVGKYYSYYCDEHFETPSGSYWDHIHCTQDGWSPAVPCLRKCYFPYLENGYNQNYGRKFVQGKSIDVACHPGYALPKAQTTVTCMENGWSPTPRCIRVSFTL
B2: FHR5: Complement Factor H-related 5, SEQ ID NO:10 (protein)
chain: MLLLFSVILISWVSTVGGEGTLCDFPKIHHGFLYDEEDYNPFSQVPTGEVFYYSCEYNFVSPSKSFWTRITCTEEGWSPTPKCLRMCSFPFVKNGHSESSGLIHLEGDTVQIICNTGYSLQNNEKNISCVERGWSTPPICSFTKGECHVPILEANVDAQPKKESYKVGDVLKFSCRKNLIRVGSDSVQCYQFGWSPNFPTCKGQVRSCGPPPQLSNGEVKEIRKEEYGHNEVVEYDCNPNFIINGPKKIQCVDGEWTTLPTCVEQVKTCGYIPELEYGYVQPSVPPYQHGVSVEVNCRNEYAMIGNNMITCINGIWTELPMCVATHQLKRCKIAGVNIKTLLKLSGKEFNHNSRIRYRCSDIFRYRHSVCINGKWNPEVDCTEKREQFCPPPPQIPNAQNMTTTVNYQDGEKVAVLCKENYLLPEAKEIVCKDGRWQSLPRCVESTAYCGPPPSINNGDTTSFPLSVYPPGSTVTYRCQSFYKLQGSVTVTCRNKQWSEPPRCLDPCVVSEENMNKNNIQLKWRNDGKLYAKTGDAVEFQCKFPHKAMISSPPFRAICQEGKFEYPICE
B3: FHR2: Complement Factor H-related 2, SEQ ID NO:4 and 5 (protein, UniProt P36980 19-270, looked up)
Complement factor H-related …: EAMFCDFPKINHGILYDEEKYKPFSQVPTGEVFYYSCEYNFVSPSKSFWTRITCAEEGWSPTPKCLRLCFFPFVENGHSESSGQTHLEGDTVQIICNTGYRLQNNENNISCVERGWSTPPKCRSTISAEKCGPPPPIDNGDITSFLLSVYAPGSSVEYQCQNLYQLEGNNQITCRNGQWSEPPKCLDPCVISQEIMEKYNIKLKWTNQQKLYSRTGDIVEFVCKSGYHPTKSHSFRAMCQNGKLVYPSCEEK
B4: FHR3: Complement Factor H-related 3, SEQ ID NO:6 and 7 (protein, UniProt Q02985 19-330, looked up)
Complement factor H-related …: QVKPCDFPDIKHGGLFHENMRRPYFPVAVGKYYSYYCDEHFETPSGSYWDYIHCTQNGWSPAVPCLRKCYFPYLENGYNQNYGRKFVQGNSTEVACHPGYGLPKAQTTVTCTEKGWSPTPRCIRVRTCSKSDIEIENGFISESSSIYILNKEIQYKCKPGYATADGNSSGSITCLQNGWSAQPICINSSEKCGPPPPISNGDTTSFLLKVYVPQSRVEYQCQPYYELQGSNYVTCSNGEWSEPPRCIHPCIITEENMNKNNIKLKGRSDRKYYAKTGDTIEFMCKLGYNANTSILSFQAVCREGIVEYPRCE
B5: FI: Human Complement Factor I, UniProt P05156, SEQ ID NO:11 (protein)
chain: MKLLHVFLLFLCFHLRFCKVTYTSQEDLVEKKCLAKKYTHLSCDKVFCQPWQRCIEGTCVCKLPYQCPKNGTAVCATNRRSFPTYCQQKSLECLHPGTKFLNNGTCTAEGKFSVSLKHGNTDSEGIVEVKLVDQDKTMFICKSSWSMREANVACLDLGFQQGADTQRRFKLSDLSINSTECLHVHCRGLETSLAECTFTKRRTMGYQDFADVVCYTQKADSPMDDFFQCVNGKYISQMKACDGINDCGDQSDELCCKACQGKGFHCKSGVCIPSQYQCNGEVDCITGEDEVGCAGFASVTQEETEILTADMDAERRRIKSLLPKLSCGVKNRMHIRRKRIVGGKRAQLGDLPWQVAIKDASGITCGGIYIGGCWILTAAHCLRASKTHRYQIWTTVVDWIHPDLKRIVIEYVDRIIFHENYNAGTYQNDIALIEMKKDGNKKDCELPRSIPACVPWSPYLFQPNDTCIVSGWGREKDNERVFSLQWGEVKLISNCSKFYGNRFYEKEMECAGTYDGSIDACKGDSGGPLVCMDANNVTYVWGVVSWGENCGKPEFPGVYTKVANYFDWISYHVGRPFISQYNV
B6: FHR1: Complement Factor H-related 1, SEQ ID NO:3 (protein)
chain: MWLLVSVILISRISSVGGEATFCDFPKINHGILYDEEKYKPFSQVPTGEVFYYSCEYNFVSPSKSFWTRITCTEEGWSPTPKCLRLCFFPFVENGHSESSGQTHLEGDTVQIICNTGYRLQNNENNISCVERGWSTPPKCRSTDTSCVNPPTVQNAHILSRQMSKYPSGERVRYECRSPYEMFGDEEVMCLNGNWTEPPQCKDSTGKCGPPPPIDNGDITSFPLSVYAPASSVEYQCQNLYQLEGNKRITCRNGQWSEPPKCLHPCVISREIMENYNIALRWTAKQKLYLRTGESAEFVCKRGYRLSSRSHTLRTTCWDGKLEYPTCAKR
B7: FHR4: Complement Factor H-related 4 (FHR4A, FHR4B), SEQ ID NO:8 and 9 (protein, UniProt Q92496 20-578, looked up)
Complement factor H-related …: EVKPCDFPEIQHGGLYYKSLRRLYFPAAAGQSYSYYCDQNFVTPSGSYWDYIHCTQDGWSPTVPCLRTCSKSDVEIENGFISESSSIYILNEETQYNCKPGYATAEGNSSGSITCLQNGWSTQPICIKFCDMPVFENSRAKSNGMWFKLHDTLDYECYDGYESSYGNTTDSIVCGEDGWSHLPTCYNSSENCGPPPPISNGDTTSFPQKVYLPWSRVEYQCQSYYELQGSKYVTCSNGDWSEPPRCISMKPCEFPEIQHGHLYYENTRRPYFPVATGQSYSYYCDQNFVTPSGSYWDYIHCTQDGWLPTVPCLRTCSKSDIEIENGFISESSSIYILNKEIQYKCKPGYATADGNSSGSITCLQNGWSAQPICIKFCDMPVFENSRAKSNGMRFKLHDTLDYECYDGYEISYGNTTGSIVCGEDGWSHFPTCYNSSEKCGPPPPISNGDTTSFLLKVYVPQSRVEYQCQSYYELQGSNYVTCSNGEWSEPPRCIHPCIITEENMNKNNIQLKGKSDIKYYAKTGDTIEFMCKLGYNANTSVLSFQAVCREGIVEYPRCE

Legend:
[1] = LC-SRM-MS quantification of FH, FHL-1 and FHR1-5 in plasma after GluC digestion; details: human subjects known not to have a complement-related disorder; derived from the mass spectrometry methods described herein
[2] = subjects known not to have a complement-related disorder, cited from earlier work

Row | Molecule | Mean reference value in human plasma [1] | Reference value in human plasma [2] | Reference value in human blood ([2]; human blood)
1 | B1 | 10.9 nM |  | 
2 | B2 | 29.2 nM | ~1.5 µg/mL | 
3 | B3 | 51.2 nM | 15 to 50 µg/mL | 
4 | B4 | 20.6 nM |  | 
5 | B5 |  | ~35 µg/mL | 
6 | B6 | 33.9 nM |  | 
7 | B7 | 46.1 nM |  | ≤ 5 µg/mL
